The results in this text go back to paper PMC5801490.

Sequences of proteins named here, by UniProt entry; tags and fusion partners are left off. Residues count along the entry.
UniProt O43157, residues 20-2135: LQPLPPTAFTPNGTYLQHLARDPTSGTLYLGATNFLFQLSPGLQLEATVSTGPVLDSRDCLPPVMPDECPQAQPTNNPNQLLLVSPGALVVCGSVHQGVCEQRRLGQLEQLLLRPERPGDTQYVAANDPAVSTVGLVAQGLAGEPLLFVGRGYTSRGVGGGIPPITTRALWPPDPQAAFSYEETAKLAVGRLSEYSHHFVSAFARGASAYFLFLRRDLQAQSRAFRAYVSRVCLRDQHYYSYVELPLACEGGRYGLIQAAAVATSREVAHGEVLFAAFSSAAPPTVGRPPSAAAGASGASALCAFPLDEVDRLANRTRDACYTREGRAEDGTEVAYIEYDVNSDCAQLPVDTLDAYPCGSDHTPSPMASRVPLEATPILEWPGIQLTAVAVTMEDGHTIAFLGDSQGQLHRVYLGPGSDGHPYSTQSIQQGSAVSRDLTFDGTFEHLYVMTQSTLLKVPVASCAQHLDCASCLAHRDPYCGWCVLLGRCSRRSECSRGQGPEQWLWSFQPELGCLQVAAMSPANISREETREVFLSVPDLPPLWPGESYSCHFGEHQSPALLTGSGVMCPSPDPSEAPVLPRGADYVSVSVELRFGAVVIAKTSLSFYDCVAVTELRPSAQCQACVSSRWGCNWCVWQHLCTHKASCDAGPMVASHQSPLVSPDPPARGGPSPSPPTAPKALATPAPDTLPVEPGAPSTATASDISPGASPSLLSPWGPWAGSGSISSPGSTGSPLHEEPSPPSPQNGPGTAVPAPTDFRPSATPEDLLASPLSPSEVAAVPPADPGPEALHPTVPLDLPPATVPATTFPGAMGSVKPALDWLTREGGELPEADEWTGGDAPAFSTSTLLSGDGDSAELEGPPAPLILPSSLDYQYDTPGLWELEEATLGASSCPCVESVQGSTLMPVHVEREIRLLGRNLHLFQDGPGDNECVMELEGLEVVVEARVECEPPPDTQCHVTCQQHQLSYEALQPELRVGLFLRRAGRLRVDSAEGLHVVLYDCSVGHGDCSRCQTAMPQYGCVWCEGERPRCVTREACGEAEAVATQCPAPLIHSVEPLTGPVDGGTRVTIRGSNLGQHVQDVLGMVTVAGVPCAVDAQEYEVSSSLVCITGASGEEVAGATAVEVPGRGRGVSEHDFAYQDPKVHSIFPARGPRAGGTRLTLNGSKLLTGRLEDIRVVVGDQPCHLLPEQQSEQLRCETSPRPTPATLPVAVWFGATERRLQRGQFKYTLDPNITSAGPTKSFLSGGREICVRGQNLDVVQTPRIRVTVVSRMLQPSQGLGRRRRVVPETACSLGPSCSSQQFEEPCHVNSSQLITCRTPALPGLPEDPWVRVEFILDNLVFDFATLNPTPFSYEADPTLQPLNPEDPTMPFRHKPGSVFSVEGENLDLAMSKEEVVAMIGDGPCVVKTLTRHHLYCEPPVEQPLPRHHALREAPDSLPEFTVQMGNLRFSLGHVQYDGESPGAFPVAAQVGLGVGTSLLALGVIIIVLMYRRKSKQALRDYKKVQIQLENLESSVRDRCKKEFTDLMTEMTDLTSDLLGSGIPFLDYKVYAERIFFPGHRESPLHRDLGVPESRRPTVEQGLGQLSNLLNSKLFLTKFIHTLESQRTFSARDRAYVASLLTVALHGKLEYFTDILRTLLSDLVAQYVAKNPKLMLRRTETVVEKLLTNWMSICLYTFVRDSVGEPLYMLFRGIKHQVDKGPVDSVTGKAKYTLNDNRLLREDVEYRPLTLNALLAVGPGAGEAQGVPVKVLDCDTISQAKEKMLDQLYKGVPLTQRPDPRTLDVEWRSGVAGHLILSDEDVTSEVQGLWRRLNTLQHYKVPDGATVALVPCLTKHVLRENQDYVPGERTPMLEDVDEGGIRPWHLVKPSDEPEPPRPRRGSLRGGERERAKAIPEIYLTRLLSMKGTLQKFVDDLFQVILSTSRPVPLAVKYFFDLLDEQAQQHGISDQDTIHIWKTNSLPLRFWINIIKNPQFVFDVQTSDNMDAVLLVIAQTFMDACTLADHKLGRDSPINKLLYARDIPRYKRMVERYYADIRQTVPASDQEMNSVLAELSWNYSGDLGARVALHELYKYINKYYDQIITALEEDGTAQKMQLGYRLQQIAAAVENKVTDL

Results are given in words; binding and its absence hold for the method and conditions named. Binding seen in cells or lysates may run through a third protein. Some results given as binding are weak or reduced against the parent protein; the word gives no strength. Where a sequence is shown, tags or fusion partners need not be part of it.

In experiment [1] the target is Plexin B1 (human (endogenous in DU145)) (UniProt O43157). In words: proximity ligation; DU145 cells treated with the recombinant Fc fusion protein (SEMA3C:Fc or B1SP) or rhIgG1Fc as control; interactions/cell; reports two proteins less than 40 nm apart; only the binder purified.
The target is the same in experiment [2]. Kind of experiment: proximity ligation; DU145 cells treated with B1SP or rhIgGFc and stimulated with SEMA3C; interactions/cell; only the binder purified.

B1: full-length recombinant SEMA3C-Fc fusion protein (Fc fusion, UniProt Q99985 21-751)
chain: GSSQPQARVYLTFDELRETKTSEYFSLSHHPLDYRILLMDEDQDRIYVGSKDHILSLNINNISQEALSVFWPASTIKVEECKMAGKDPTHGCGNFVRVIQTFNRTHLYVCGSGAFSPVCTYLNRGRRSEDQVFMIDSKCESGKGRCSFNPNVNTVSVMINEELFSGMYIDFMGTDAAIFRSLTKRNAVRTDQHNSKWLSEPMFVDAHVIPDGTDPNDAKVYFFFKEKLTDNNRSTKQIHSMIARICPNDTGGLRSLVNKWTTFLKARLVCSVTDEDGPETHFDELEDVFLLETDNPRTTLVYGIFTTSSSVFKGSAVCVYHLSDIQTVFNGPFAHKEGPNHQLISYQGRIPYPRPGTCPGGAFTPNMRTTKEFPDDVVTFIRNHPLMYNSIYPIHKRPLIVRIGTDYKYTKIAVDRVNAADGRYHVLFLGTDRGTVQKVVVLPTNNSVSGELILEELEVFKNHAPITTMKISSKKQQLYVSSNEGVSQVSLHRCHIYGTACADCCLARDPYCAWDGHSCSRFYPTGKRRSRRQDVRHGNPLTQCRGFNLKAYRNAAEIVQYGVKNNTTFLECAPKSPQASIKWLLQKDKDRRKEVKLNERIIATSQGLLIRSVQGSDQGLYHCIATENSFKQTIAKINFKVLDSEMVAVVTDKWSPWTWASSVRALPFHPKDIMGAFSHSEMQMINQYCKDTRQQHQQGDESQKMRGDYGKLKALINSRKSRNRRNQLPES
Regarding B1, the binding result in experiment [1] and in experiment [2] was “binds” in each case.
